According to article PMC5996148:
Where “and” joins values, the source holds several entries; their conditions need not be identical. Equal entries are not always repeated. The list shows a part of the results.

Experiments:
Assay in all cases: protein microarray (ProtoArray v5.0), streptavidin-Alexa Fluor 647
Details in all cases: 3'-biotin; 20 mM Tris (pH 7.5), 5 mM MgCl2, 100 mM KCl, 0.1% Tween-20, A/T-rich and random oligonucleotide blockers; temperature not stated; high values mean tight binding
IFNW1 (human) = system: IFNW1 (human)
IFT81 (human) = system: IFT81 (human)
IGF2 (human) = system: IGF2 (human)
IGHA1 (human) = system: IGHA1 (human)
IGHG1 (human) = system: IGHG1 (human)
IGHM (human) = system: IGHM (human)
IGJ (human) = system: IGJ (human)
IGKV1-5 (human) = system: IGKV1-5 (human)
IGL@ (human) = system: IGL@ (human)
IGLC1 (human) = system: IGLC1 (human)

Sequence: GGGAGGCTGAGGCAGG [G4-1 biotinylated (PQS2)]
- binding signal (IFNW1 (human)): -0.331 z-score
- binding signal (IFT81 (human)): -0.292 z-score
- binding signal (IGF2 (human)): -0.251 z-score
- binding signal (IGHA1 (human)): -0.341 z-score
- binding signal (IGHG1 (human)): -0.278 z-score
- binding signal (IGHM (human)): -0.33 z-score
- binding signal (IGJ (human)): -0.326 z-score
- binding signal (IGKV1-5 (human)): -0.316 z-score and -0.288 z-score
- binding signal (IGL@ (human)): -0.355 z-score
- binding signal (IGLC1 (human)): -0.308 z-score
